Assay results reported in the supplement of paper PMC8728848.
The list shows a part of the results.

Legend:
Experiment in all cases: glycan array binding signal (z-score within array); higher = stronger binding
Conditions in all cases: glycan notation: IUPAC condensed, linker removed
[1] = target: Gal(b1-3)GlcNAc(b1-6)[Gal(b1-3)]GalNAc
Summary of the method: (§1)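 Columns mapping to the same glycan were averaged after glycan names were converted to IUPAC-condensed notation. The data come from 3228 arrays in the Consortium for Functional Glycomics database, limited to those with an available protein sequence. Binding is reported as a within-array Z-score averaged across arrays of one protein sequence and across linkers.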

Gal(b1-3)GlcNAc6S = target: Gal(b1-3)GlcNAc6S
Summary of the method: as §1

[2] = target: Gal(b1-3)[Fuc(a1-4)]GlcNAc
Summary of the method: as §1

[3] = target: Gal(b1-3)[Fuc(a1-4)]GlcNAc(b1-2)Man
Summary of the method: as §1

[4] = target: Gal(b1-3)[Fuc(a1-4)]GlcNAc(b1-2)Man(a1-3)[Gal(b1-3)[Fuc(a1-4)]GlcNAc(b1-2)Man(a1-6)]Man(b1-4)GlcNAc(b1-4)[Fuc(a1-6)]GlcNAc
Summary of the method: as §1

[5] = target: Gal(b1-3)[Fuc(a1-4)]GlcNAc(b1-3)Gal(b1-3)[Fuc(a1-4)]GlcNAc
Summary of the method: as §1

[6] = target: Gal(b1-3)[Fuc(a1-4)]GlcNAc(b1-3)Gal(b1-4)[Fuc(a1-3)]GlcNAc
Summary of the method: as §1

[7] = target: Gal(b1-3)[Fuc(a1-4)]GlcNAc(b1-6)GalNAc
Summary of the method: as §1

[8] = target: Gal(b1-3)[GlcNAc(b1-6)]GalNAc
Summary of the method: as §1

[9] = target: Gal(b1-3)[Neu5Ac(a2-6)]GalNAc
Summary of the method: as §1

[10] = target: Gal(b1-3)[Neu5Ac(a2-6)]GlcNAc(b1-4)Gal(b1-4)Glc
Summary of the method: as §1

[11] = target: Gal(b1-3)[Neu5Ac(b2-6)]GalNAc
Summary of the method: as §1

Gal(b1-4)Gal = target: Gal(b1-4)Gal
Summary of the method: as §1

[12] = target: Gal(b1-4)GalNAc(a1-3)[Fuc(a1-2)]Gal(b1-4)GlcNAc
Summary of the method: as §1

[13] = target: Gal(b1-4)GalNAc(b1-3)[Fuc(a1-2)]Gal(b1-4)GlcNAc
Summary of the method: as §1

Gal(b1-4)Glc = target: Gal(b1-4)Glc
Summary of the method: as §1

Gal(b1-4)Glc6S = target: Gal(b1-4)Glc6S
Summary of the method: as §1

Gal(b1-4)GlcNAc = target: Gal(b1-4)GlcNAc
Summary of the method: as §1

[14] = target: Gal(b1-4)GlcNAc(a1-6)Gal(b1-4)GlcNAc
Summary of the method: as §1

Gal(b1-4)GlcNAc(b1-2)Man = target: Gal(b1-4)GlcNAc(b1-2)Man
Summary of the method: as §1

[15] = target: Gal(b1-4)GlcNAc(b1-2)Man(a1-3)Man(b1-4)GlcNAc(b1-4)GlcNAc
Summary of the method: as §1

[16] = target: Gal(b1-4)GlcNAc(b1-2)Man(a1-3)[Gal(b1-4)GlcNAc(b1-2)Man(a1-6)]Man(b1-4)GlcNAc(b1-4)GlcNAc
Summary of the method: as §1

[17] = target: Gal(b1-4)GlcNAc(b1-2)Man(a1-3)[Gal(b1-4)GlcNAc(b1-2)Man(a1-6)]Man(b1-4)GlcNAc(b1-4)[Fuc(a1-6)]GlcNAc
Summary of the method: as §1

[18] = target: Gal(b1-4)GlcNAc(b1-2)Man(a1-3)[Gal(b1-4)GlcNAc(b1-2)Man(a1-6)][Gal(b1-4)GlcNAc(b1-4)]Man(b1-4)GlcNAc(b1-4)[Fuc(a1-6)]GlcNAc
Summary of the method: as §1

[19] = target: Gal(b1-4)GlcNAc(b1-2)Man(a1-3)[Gal(b1-4)GlcNAc(b1-2)Man(a1-6)][GlcNAc(b1-4)]Man(b1-4)GlcNAc(b1-4)[Fuc(a1-6)]GlcNAc
Summary of the method: as §1

[20] = target: Gal(b1-4)GlcNAc(b1-2)Man(a1-3)[GlcNAc(b1-2)Man(a1-6)]Man(b1-4)GlcNAc(b1-4)GlcNAc
Summary of the method: as §1

[21] = target: Gal(b1-4)GlcNAc(b1-2)Man(a1-3)[GlcNAc(b1-4)][Gal(b1-4)GlcNAc(b1-2)Man(a1-6)]Man(b1-4)GlcNAc(b1-4)GlcNAc
Summary of the method: as §1

[22] = target: Gal(b1-4)GlcNAc(b1-2)Man(a1-3)[Man(a1-6)]Man(b1-4)GlcNAc(b1-4)GlcNAc
Summary of the method: as §1

[23] = target: Gal(b1-4)GlcNAc(b1-2)Man(a1-6)Man(b1-4)GlcNAc(b1-4)GlcNAc
Summary of the method: as §1

[24] = target: Gal(b1-4)GlcNAc(b1-2)Man(a1-6)[GlcNAc(b1-2)Man(a1-3)]Man(b1-4)GlcNAc(b1-4)GlcNAc
Summary of the method: as §1

[25] = target: Gal(b1-4)GlcNAc(b1-2)Man(a1-6)[Man(a1-3)]Man(b1-4)GlcNAc(b1-4)GlcNAc
Summary of the method: as §1

[26] = target: Gal(b1-4)GlcNAc(b1-2)[Gal(b1-4)GlcNAc(b1-4)]Man(a1-3)[Gal(b1-4)GlcNAc(b1-2)Man(a1-6)]Man(b1-4)GlcNAc(b1-4)GlcNAc
Summary of the method: as §1

[27] = target: Gal(b1-4)GlcNAc(b1-2)[Gal(b1-4)GlcNAc(b1-4)]Man(a1-3)[Gal(b1-4)GlcNAc(b1-2)[Gal(b1-4)GlcNAc(b1-6)]Man(a1-6)]Man(b1-4)GlcNAc(b1-4)GlcNAc
Summary of the method: as §1

[28] = target: Gal(b1-4)GlcNAc(b1-2)[Gal(b1-4)GlcNAc(b1-4)]Man(a1-3)[GlcNAc(b1-4)][Gal(b1-4)GlcNAc(b1-2)Man(a1-6)]Man(b1-4)GlcNAc(b1-4)GlcNAc
Summary of the method: as §1

[29] = target: Gal(b1-4)GlcNAc(b1-2)[Gal(b1-4)GlcNAc(b1-4)]Man(a1-3)[GlcNAc(b1-4)][Gal(b1-4)GlcNAc(b1-2)[Gal(b1-4)GlcNAc(b1-6)]Man(a1-6)]Man(b1-4)GlcNAc(b1-4)GlcNAc
Summary of the method: as §1

[30] = target: Gal(b1-4)GlcNAc(b1-2)[Gal(b1-4)GlcNAc(b1-6)]Man(a1-6)[Gal(b1-4)GlcNAc(b1-2)Man(a1-3)]Man(b1-4)GlcNAc(b1-4)GlcNAc
Summary of the method: as §1

[31] = target: Gal(b1-4)GlcNAc(b1-2)[Gal(b1-4)GlcNAc(b1-6)]Man(a1-6)[Gal(b1-4)GlcNAc(b1-2)Man(a1-3)]Man(b1-4)GlcNAc(b1-4)[Fuc(a1-6)]GlcNAc
Summary of the method: as §1

[32] = target: Gal(b1-4)GlcNAc(b1-2)[Gal(b1-4)GlcNAc(b1-6)]Man(a1-6)[GlcNAc(b1-4)][Gal(b1-4)GlcNAc(b1-2)Man(a1-3)]Man(b1-4)GlcNAc(b1-4)GlcNAc
Summary of the method: as §1

[33] = target: Gal(b1-4)GlcNAc(b1-2)[Gal(b1-4)GlcNAc(b1-6)]Man(a1-6)[GlcNAc(b1-4)][Gal(b1-4)GlcNAc(b1-2)[Gal(b1-4)GlcNAc(b1-4)]Man(a1-3)]Man(b1-4)GlcNAc(b1-4)[Fuc(a1-6)]GlcNAc
Summary of the method: as §1

[34] = target: Gal(b1-4)GlcNAc(b1-3)Gal(b1-3)GalNAc
Summary of the method: as §1

[35] = target: Gal(b1-4)GlcNAc(b1-3)Gal(b1-3)GlcNAc
Summary of the method: as §1

[36] = target: Gal(b1-4)GlcNAc(b1-3)Gal(b1-4)Glc
Summary of the method: as §1

[37] = target: Gal(b1-4)GlcNAc(b1-3)Gal(b1-4)GlcNAc
Summary of the method: as §1

[38] = target: Gal(b1-4)GlcNAc(b1-3)Gal(b1-4)GlcNAc(b1-2)Man(a1-3)[Gal(b1-4)GlcNAc(b1-3)Gal(b1-4)GlcNAc(b1-2)Man(a1-6)]Man(b1-4)GlcNAc(b1-4)GlcNAc
Summary of the method: as §1

[39] = target: Gal(b1-4)GlcNAc(b1-3)Gal(b1-4)GlcNAc(b1-2)Man(a1-3)[Gal(b1-4)GlcNAc(b1-3)Gal(b1-4)GlcNAc(b1-2)Man(a1-6)]Man(b1-4)GlcNAc(b1-4)[Fuc(a1-6)]GlcNAc
Summary of the method: as §1

B1: Awp3 (Candida glabrata), B4UN32 (protein)
chain: MISFVTLLAILGLLSISWADQTVRSVAGDQRVTDPVIVGDNSILDYYGGSNYDFSNNFEIGRGTLYIGKESYFSSFQSAPTDVPNSFHLLIKNTNNLQNNGQFIIENIKRHANQCSNSSIQVFPINFQNDGEFEIISGGVEGRCCLPTSVIAPQNFLNNGKFYYKVLTDTGSIYSGSCMQNVDIGASTTTTVNNNLWEFTGSINAQINGAVSGAAQINLDGSNMFVNANTFSGQVVNLINGGSFLQTSDPLSNIVVINGLGTSDTGVTSIAVKGKGKSFTYNPSSGIVKLTTVEGKTYAYQIGCGYNTKKFITNNDSGASYESADNFFVLTYSEPYSPQTCQLENSSIFSSNFISTSTSSSSSSSSASSLPSSMSSSLPSSLSSSLSSSLSSSMSSSMSSLFIIPPPYTTTRSSGSSIIDTEIVSFYSTTDSPGHTITGTTTTTLYGPHTHSSVSTPSSSSESSTTSNSSIESSSLPHTSVSSTPESSITPSSNTISSSPTSDFSSVQSSSIMESSSVVASSSVINSSSIVDSSSSSASSLPSSMSSSLSSSMSSSLPSSMSSSLSSSLSSSLSSSMSSSMSSLFIIPPPYTTTRSSGSSIIDTEIVSFYSTTDSPGHTITGTTTTTLYGPHTHSSVSTPSSSSESSTTSNSSIESSSLPHTSVSSTPESSITPSSNTISSSPTSDFSSVQSSSIMESSSVVASSSVINSSSIVDSSSSSASSLPSSMPSSLPSSMSSSLSSSMSSSLSSSLSSSLSSSMSSSMSSLFIIPPPYTTTRSSGSSIIDTEIVSFYSTTDSPGHTITGTTTTTLYGPHTHSSVSTPSSSSESSTTSNSSIESSSLPHTSVSSTPESSITPSSNTISSSPTSDFSSVQSSSIMESSSVVASSSATQSSSVINSSSIVDSSSSSASSLPSSMPSSLPSSLSSSLSSSLSSSMSSSMSSLFIIPPPYTTTRSSGSSIIDTEIVSFYSTTDSPGHTITGTTTTTLYESSIYSSSSSTIQESELSNTSRTTMTSNSSVSISSTSSRSSFSNTKSSTIVISQSASLPDSKTDIILSTSSNIGYSSRSLLSDLGTSISDSDIHHSVLHSTESYSSNESGTNPFTSIASLSNFIPESSSHTSTALGSENSVISSDILTTMSHPVATNSGDKPTTPKRSEQVSTTMTSSGPTPDTSSFDTDGMSAYSRPEFTTNSLEVNKSSTSQLGNNKQTFSNLQLESTRPHSENEVDNNTRLLQSIQQSSTYGTNNVNPLSPTGSISIPLTEDGQGDNNNWNSPATNDLCTQISFNLTATTITVTDRITITDSIHDISSEVITSYIYQTIVDQKTVTQTVDGKSLANKMSSIPKPSSRSLIQPQPPVAIELQEGAASTSRVSLVSLFISIILVLL
[1]
  glycan array binding signal (z-score): -0.513
Gal(b1-3)GlcNAc6S
  glycan array binding signal (z-score): -0.144
[2]
  glycan array binding signal (z-score): -0.703
[3]
  glycan array binding signal (z-score): 1.38
[4]
  glycan array binding signal (z-score): -0.666
[5]
  glycan array binding signal (z-score): -0.339
[6]
  glycan array binding signal (z-score): -0.052
[7]
  glycan array binding signal (z-score): -0.102
[8]
  glycan array binding signal (z-score): 0.061
[9]
  glycan array binding signal (z-score): 0.147
[10]
  glycan array binding signal (z-score): -0.676
[11]
  glycan array binding signal (z-score): 0.392
Gal(b1-4)Gal
  glycan array binding signal (z-score): 0.261
[12]
  glycan array binding signal (z-score): 0.375
[13]
  glycan array binding signal (z-score): -0.76
Gal(b1-4)Glc
  glycan array binding signal (z-score): 0.406
Gal(b1-4)Glc6S
  glycan array binding signal (z-score): -0.023
Gal(b1-4)GlcNAc
  glycan array binding signal (z-score): 0.048
[14]
  glycan array binding signal (z-score): -0.116
Gal(b1-4)GlcNAc(b1-2)Man
  glycan array binding signal (z-score): -1.35
[15]
  glycan array binding signal (z-score): -1.86
[16]
  glycan array binding signal (z-score): -0.701
[17]
  glycan array binding signal (z-score): 1.08
[18]
  glycan array binding signal (z-score): -0.746
[19]
  glycan array binding signal (z-score): 1.4
[20]
  glycan array binding signal (z-score): -1.06
[21]
  glycan array binding signal (z-score): -0.899
[22]
  glycan array binding signal (z-score): -0.338
[23]
  glycan array binding signal (z-score): -0.42
[24]
  glycan array binding signal (z-score): 0.07
[25]
  glycan array binding signal (z-score): 0.258
[26]
  glycan array binding signal (z-score): -0.788
[27]
  glycan array binding signal (z-score): -0.258
[28]
  glycan array binding signal (z-score): -0.635
[29]
  glycan array binding signal (z-score): -1.71
[30]
  glycan array binding signal (z-score): 0.708
[31]
  glycan array binding signal (z-score): 1.49
[32]
  glycan array binding signal (z-score): 0.134
[33]
  glycan array binding signal (z-score): 0.333
[34]
  glycan array binding signal (z-score): -0.84
[35]
  glycan array binding signal (z-score): 1.74
[36]
  glycan array binding signal (z-score): 0.234
[37]
  glycan array binding signal (z-score): -1.02
[38]
  glycan array binding signal (z-score): 1.18
[39]
  glycan array binding signal (z-score): 0.352
